Paper PMC7819943, “Rice protein-binding microarrays: a tool to detect cis-acting elements near promoter regions in rice”
Some of the results follow.

By UniProt entry, the sequences of proteins in these tests, tags left out.
UniProt Q0JBA9, entry or part of it: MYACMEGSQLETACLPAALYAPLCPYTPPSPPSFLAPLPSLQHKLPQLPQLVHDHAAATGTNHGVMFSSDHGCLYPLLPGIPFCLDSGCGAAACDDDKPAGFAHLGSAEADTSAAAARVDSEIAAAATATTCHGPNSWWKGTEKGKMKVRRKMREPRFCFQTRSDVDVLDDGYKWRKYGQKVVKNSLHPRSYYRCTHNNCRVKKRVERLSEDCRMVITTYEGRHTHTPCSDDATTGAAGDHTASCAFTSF

The sequences below were run against OsWRKY34 (Oryza sativa, UniProt Q0JBA9 1-250) (assay: protein-binding microarray (RPBM); PBS, 2% BSA, 51.3 ng/ul salmon testes DNA, 50 uM zinc acetate, 200 nM TF, 25 C, 1 h; high values mean tight binding). Conditions: protein: recombinant; tags: N-terminal polyhistidine and DsRed monomer fusion (pET32a); label: CyDye5-dUTP incorporated in the synthesized complementary strand; 3' TTTTT single-stranded linker to array surface; dsDNA, one strand shown.
Outline: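 A custom Agilent array was converted to double-stranded form by primer extension with Cy5-dUTP and blocked with 2% BSA. Protein at 200 nM in PBS with 2% BSA, salmon testes DNA and 50 µM zinc acetate was applied for 1 h at 25 °C, followed by washing. The proteins were polyhistidine–DsRed N-terminal fusions of transcription factors, expressed in E. coli BL21-CodonPlus and Ni–NTA-purified. The binding signal is per-feature fluorescence intensity (arbitrary units) from an Axon 4000B scanner.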
In the case of “TGCCGCCCGACTGATGCACGTCAGTCGGGTCTGACCAGTCCGGAGTCACCTAGTGCAG”, the binding signal is reported as 8630 fluorescence intensity (a.u.).
“AGTAGCATTTTGTCTTGTTCGGATCATTGCCCTTGATTTACGGAGTCACCTAGTGCAG” was tested, and the binding signal was 12200 fluorescence intensity (a.u.).
With “GCCGTCCGCCGTGAGCCGGTGCTGTCCACGACGTCGTCTTCGGAGTCACCTAGTGCAG” the binding signal was 9640 fluorescence intensity (a.u.).
In the case of “CAGGGTCTGTGCTCAACACTCTATTCTTGTCGTTACTCCTCGGAGTCACCTAGTGCAG”, the binding signal is reported as 9780 fluorescence intensity (a.u.).
For “GGAAGGCTATGTTTCGTGTTTCCTTTCGTTTCTATTCCGACGGAGTCACCTAGTGCAG”, the binding signal was 10300 fluorescence intensity (a.u.).
With “CCATACCTAATCCGACGGTGCCCAAATATACCAATTATTTCGGAGTCACCTAGTGCAG” the binding signal was 10500 fluorescence intensity (a.u.).
In the case of “TTCGCTCTCCGCCCACTTCCCCATCACGCGCGAGCGCTGCCGGAGTCACCTAGTGCAG”, the binding signal is reported as 12900 fluorescence intensity (a.u.).
With “AAGACGAACGGTCAAACATTTTTAAAAAAGTCAACGGCGTCGGAGTCACCTAGTGCAG” the binding signal was 11900 fluorescence intensity (a.u.).
With “ATCTTTTTTGAACTCGAGCAACGTTGCCCTGCCTGCTTTCCGGAGTCACCTAGTGCAG” the binding signal was 9430 fluorescence intensity (a.u.).
For “CAGGTTATAAGATGTTTTGACTTTAGTTAAAGTCAAAGTGCGGAGTCACCTAGTGCAG”, the binding signal was 10100 fluorescence intensity (a.u.).
For “CCCACAAGCTTCCACGCACCCGCCGGCGTCAGCCTCCACCCGGAGTCACCTAGTGCAG”, the binding signal was 8120 fluorescence intensity (a.u.).
With “CGCGTCTCTCGTCATGTTGTCCACCTAAAAACCATACACACGGAGTCACCTAGTGCAG” the binding signal was 8190 fluorescence intensity (a.u.).
For “TCTATGGGCCGCCTCCATCCCTCAAGTTACCATATCTTCTCGGAGTCACCTAGTGCAG”, the binding signal was 9350 fluorescence intensity (a.u.).
“TGGGAGAGCCATTGCTTTACTTGCTTGTTTGTTATCATCACGGAGTCACCTAGTGCAG” was tested, and the binding signal was 10100 fluorescence intensity (a.u.).
“GAGAGAGGAAGAACAGTACGTGTCTAGGGGCATTTTGGTACGGAGTCACCTAGTGCAG” was tested, and the binding signal was 9700 fluorescence intensity (a.u.).
For “CCTCATCCTTGCCCTTATCTGCCTGTCACCATCACCTGACCGGAGTCACCTAGTGCAG”, the binding signal was 12600 fluorescence intensity (a.u.).
For “TGGCAGGATTTCTTATGTATTTACCAAATTTGGCAACAAACGGAGTCACCTAGTGCAG”, the binding signal was 9920 fluorescence intensity (a.u.).
With “GAAGTAGTTCTGACCTTTGAGCTGTACTCTTTTCTTTGTCCGGAGTCACCTAGTGCAG” the binding signal was 8750 fluorescence intensity (a.u.).
“GATGACTTTTTATTGAGCTCTTTGTTGATTTTTCTTGAGTCGGAGTCACCTAGTGCAG” was tested, and the binding signal was 11100 fluorescence intensity (a.u.).
With “AAGACGAATGGTCAAACATGTGAGAAAAAGTCAACGACGTCGGAGTCACCTAGTGCAG” the binding signal was 12100 fluorescence intensity (a.u.).
In the case of “CTTTAAATATCCTTTGGCCCTTTCGCCTACCGCACTCACTCGGAGTCACCTAGTGCAG”, the binding signal is reported as 8320 fluorescence intensity (a.u.).
For “AACCATATTCATTTCATTTCATTCGCGGCTTTAATCTCATCGGAGTCACCTAGTGCAG”, the binding signal was 11600 fluorescence intensity (a.u.).
For “GGCAACCACCTCAATTATTATTCCATTCCCTACCACCACTCGGAGTCACCTAGTGCAG”, the binding signal was 9980 fluorescence intensity (a.u.).
